The record followed here is ChEMBL document CHEMBL5543144, “Discovery of a Novel Potent Tetrazole Antifungal Candidate with High Selectivity and Broad Spectrum” (J Med Chem, 2024).

As usually defined, the MIC is the lowest concentration that inhibits growth of the organism.

Values after ≈ are worked out from the molar mass of the structure shown.

In experiment [1] the test system is Candida albicans. In words: Antifungal activity in Candida albicans SC5314 assessed as inhibition of fungal growth incubated for 26 days by induction of resistance assay. The settings on record: SC5314, 624 h, time 26 day. The format is functional.
The test system of experiment [2] is Candida albicans. In words: Antifungal activity in Candida albicans SC5314 assessed as inhibition of fungal growth incubated for 6 days by induction of resistance assay. The format is functional. The settings on record: SC5314, 144 h, time 6 day.

With `OC(Cn1cncn1)(Cn1cncn1)c1ccc(F)cc1F` [FLUCONAZOLE], the figures for the MIC with Candida albicans [1] and in the experiment on Candida albicans [2] were 32 µg/mL (≈ 104 µM) and 4 µg/mL (≈ 13.1 µM), respectively.
